Some of these results come from one statement about several compounds together.
Experiments:
HepG2 cells = test: Levels of FC and NAFC in HepG2 cells (LC/MS); assay type: cell-based, human; conditions: HepG2, span over inhibitors 10 and 11
Description: (§1) HUH7 and HepG2 cells were seeded in 6-well plates at a density 250,000 cells per well in complete medium. Next day the medium was changed to 2 ml DMEM with 1% FBS containing a 10-20 μM AA3 inhibitor. After 24 h incubation, the medium was collected, concentrated 10 times on a vacuum concentrator; 10 μl aliquots were used for quantitation by LC/MS and LC/MS/MS-MRM. The cells were trypsinized, washed in PBS and centrifuged at 2,000 g for 10 min. Then cell pellet was lysed on ice in 50 μl of 20 mM Tris-HCl, pH 7.5, containing 1% dodecyl maltoside (DDM) and 1× protease inhibitor cocktail (Sigma/Aldrich). After centrifugation (14,000 g, 10 min) the supernatants were diluted 4 times with methanol and centrifuged (14,000 g, 10 min), then the supernatants were diluted 10 times with water, and 10 μl aliquots were used for quantitation by LC/MS and LC/MS/MS-MRM as described above expect electrospray ionization was used with an Agilent 6460 triple quadrupole mass spectrometer.

HuH7 cells = test: Levels of FC and NAFC in HuH7 cells (LC/MS); assay type: cell-based, human; conditions: HuH7, span over inhibitors 10 and 11
Description: as §1

rat AA1 = test: Deacetylation of NAFC and NAGGC by rat AA1 (fluorescent assay); assay type: biochemical; conditions: 1 mM substrate

Structure (SMILES)	magnitude of changes in [FC]/[NAFC] ratio (HepG2 cells)	magnitude of changes in [FC]/[NAFC] ratio (HuH7 cells)	specific activity of rat AA1, % of the corresponding value of AA3 (rat AA1)
O=c1nc(-c2ccccc2)sc2ccccc12 [Inhibitor 10, 2-Phenyl-4H-1,3-benzothiazin-4-one]	3.0-5.3	3.1-3.3	
CC(=O)C/C(C)=C/CC/C(C)=C/CC/C(C)=C/CC/C(C)=C/CN[C@@H](CS)C(=O)O [NAGGC, N-acetylgeranylgeranylcysteine]			less than 0.1%
COc1ccc(CSc2nc3cc(S(N)(=O)=O)ccc3n2C)cc1F [Inhibitor 11, 2-[(3-Fluoro-4-methoxybenzyl)sulfanyl]-1-methyl-1H-benzimidazole-5-sulfonamide]	3.0-5.3	3.1-3.3	
CC(=O)CC(C)=CCCC(C)=CCCC(C)=CCN[C@@H](CS)C(=O)O [NAFC, N-acetylfarnesylcysteine]			less than 0.1%

From patent publication US11464784B2, “Inhibition of aminocylase 3 (AA3) in the treatment of cancer” (THE REGENTS OF THE UNIVERSITY OF CALIFORNIA, priority 2017, dated 2022)
